No constants are given. Whether binding was seen depends on the method and setting. A result given as binding can be weak or reduced; the word gives no strength.

Experiment [1] deals with iC3b. Description: iC3b binding ELISA, iC3b coated directly, IgG titrated [iC3b binding ELISA]. A general note: In an ELISA, binding on a coated surface is turned into a signal by an enzyme label.
Experiment [2] concerns the target iC3b. In words: cross reactivity, ELISA on directly coated iC3b, anti-His detection.
Experiment [3] addresses cynomolgus complement C3b protein (cynomolgus monkey (Macaca fascicularis)). In words: capture ELISA, Fab lysate, secondary screening.

B1: MOR09609 IgG (antibody, V domains shown)
VH: EVQLVQSGAEVKKPGSSVKVSCKASGGTFSSYTFSWVRQAPGQGLEWMGNILPIFGDANYAQKFQGRVTITADESTSTAYMELSSLRSEDTAVYYCARNKGAFYYMSTYPSLDVWGQGTLVTVSS
VL: DIQMTQSPSSLSASVGDRVTITCRASQNINYYLNWYQQKPGKAPKLLIYDAFSLQSGVPSRFSGSGSGTDFTLTISSLQPEDFATYYCQQSWSVPPFTFGQGTKVEIKR
For the molecule B1, the binding entry with iC3b [1] was “binds”.

B2: MOR09675 IgG (antibody, V domains shown)
VH: EVQLVQSGAEVKKPGASVKVSCKASGYTFTGYYINWVRQAPGQGLEWMGIISPNQGTTGYAQKFQGRVTMTRDTSISTAYMELSSLRSEDTAVYYCARGNYDHLDYWGQGTLVTVSS
VL: DIQMTQSPSSLSASVGDRVTITCRASQGISNYLNWYQQKPGKAPKLLIYDASTLQSGVPSRFSGSGSGTDFTLTISSLQPEDFATYYCQQDWHTLPVTFGQGTKVEIKR
For B2, in the experiment with iC3b [1], the binding entry is “binds”.

B3: MOR09141 Fab (Fab, V domains shown)
VH: QVQLVQSGAEVKKPGSSVKVSCKASGGTFSSYTFSWVRQAPGQGLEWMGNILPIFGDANYAQKFQGRVTITADESTSTAYMELSSLRSEDTAVYYCARNKGAFYYMSTYPSLDVWGQGTLVTVSS
VL: DIQMTQSPSSLSASVGDRVTITCRASQNINYYLNWYQQKPGKAPKLLIYDAFSLQSGVPSRFSGSGSGTDFTLTISSLQPEDFATYYCQQSIAVPPFTFGQGTKVEIKR
As to B3, the binding result with iC3b [2] is on record as “binds”.

B4: MOR9610 Fab format (Fab, V domains shown)
VH: EVQLVQSGAEVKKPGSSVKVSCKASGGTFSSYTFSWVRQAPGQGLEWMGNILPIFGDANYAQKFQGRVTITADESTSTAYMELSSLRSEDTAVYYCARNKGAFYYMSTYPSLDVWGQGTLVTVSS
VL: DIQMTQSPSSLSASVGDRVTITCRASQNINYYLNWYQQKPGKAPKLLIYDAFSLQSGVPSRFSGSGSGTDFTLTISSLQPEDFATYYCQQSIAVPPFTFGQGTKVEIK
On to B4, for which, in the experiment with iC3b [2], the binding entry is on record as “binds”.

B5: MOR09610 IgG (antibody, V domains shown)
VH: EVQLVQSGAEVKKPGSSVKVSCKASGGTFSSYTFSWVRQAPGQGLEWMGNILPIFGDANYAQKFQGRVTITADESTSTAYMELSSLRSEDTAVYYCARNKGAFYYMSTYPSLDVWGQGTLVTVSS
VL: DIQMTQSPSSLSASVGDRVTITCRASQNINYYLNWYQQKPGKAPKLLIYDAFSLQSGVPSRFSGSGSGTDFTLTISSLQPEDFATYYCQQSIAVPPFTFGQGTKVEIKR
For the molecule B5, the binding entry with iC3b [1] was “binds”.

B6: MOR09136 Fab (Fab, V domains shown)
VH: QVQLVQSGAEVKKPGSSVKVSCKASGGTFSSYTFSWVRQAPGQGLEWMGNILPIFGDANYAQKFQGRVTITADESTSTAYMELSSLRSEDTAVYYCARNKGAFYYMSTYPSLDVWGQGTLVTVSS
VL: DIQMTQSPSSLSASVGDRVTITCRASQNINYYLNWYQQKPGKAPKLLIYDAFSLQSGVPSRFSGSGSGTDFTLTISSLQPEDFATYYCQQSWSVPPFTFGQGTKVEIKR
As for B6, in the experiment with iC3b [2], the binding result was “binds”.

B7: MOR09423 Fab (Fab, V domains shown)
VH: QVQLVQSGAEVKKPGASVKVSCKASGYTFTGYYINWVRQAPGQGLEWMGIISPNQGTTGYAQKFQGRVTMTRDTSISTAYMELSSLRSEDTAVYYCARGNYDHLDYWGQGTLVTVSS
VL: DIQMTQSPSSLSASVGDRVTITCRASQGISNYLNWYQQKPGKAPKLLIYDASTLQSGVPSRFSGSGSGTDFTLTISSLQPEDFATYYCQQDWHTLPVTFGQGTKVEIKR
With B7, in the experiment with iC3b [2], the binding result was “binds”.

B8: MOR09556 IgG (antibody, V domains shown)
VH: EVQLVESGGGLVQPGGSLRLSCAASGFTFSSYWMTWVRQAPGKGLEWVSSIKIKPDGYAASVKGRFTISRDNSKNTLYLQMNSLRAEDTAVYYCARLFYQYFARMDYWGQGTLVTVSS
VL: DIQMTQSPSSLSASVGDRVTITCRASQDISNYLNWYQQKPGKAPKLLIYAASNLQSGVPSRFSGSGSGTDFTLTISSLQPEDFATYYCQQYDSYSPTFGQGTKVEIKR
Take B8: the binding result with iC3b [1] is “binds”.

B9: MOR09124 Fab (Fab, V domains shown)
VH: QVQLVESGGGLVQPGGSLRLSCAASGFTFSSYWMTWVRQAPGKGLEWVSSIKIKPDGYAASVKGRFTISRDNSKNTLYLQMNSLRAEDTAVYYCARLFYQYFARMDYWGQGTLVTVSS
VL: DIQMTQSPSSLSASVGDRVTITCRASQDISNYLNWYQQKPGKAPKLLIYAASNLQSGVPSRFSGSGSGTDFTLTISSLQPEDFATYYCQQYDSYSPTFGQGTKVEIKR
As for B9, the binding entry (in experiment [3]; with iC3b [2]) was “binds” throughout.

B10: MOR09612 IgG (antibody, V domains shown)
VH: EVQLVESGGGLVQPGGSLRLSCAASGFTFSSYWMTWVRQAPGKGLEWVSSIKIKPDGYAASVKGRFTISRDNSKNTLYLQMNSLRAEDTAVYYCARLFYQYFARMDYWGQGTLVTVSS
VL: DIQMTQSPSSLSASVGDRVTITCRASQDISNYLNWYQQKPGKAPKLLIYAASNLQSGVPSRFSGSGSGTDFTLTISSLQPEDFATYYCQQWDSFSPTFGQGTKVEIKR
As to B10, the binding result with iC3b [1] is “binds”.

B11: MOR09611 IgG (antibody, V domains shown)
VH: EVQLVESGGGLVQPGGSLRLSCAASGFTFSSYWMTWVRQAPGKGLEWVSSIKIKPDGYAASVKGRFTISRDNSKNTLYLQMNSLRAEDTAVYYCARLFYQYFARMDYWGQGTLVTVSS
VL: DIQMTQSPSSLSASVGDRVTITCRASQDISNYLNWYQQKPGKAPKLLIYAASNLQSGVPSRFSGSGSGTDFTLTISSLQPEDFATYYCQQHDTFRPTFGQGTKVEIKR
On to B11, for which the binding result with iC3b [1] is “binds”.

B12: MOR09397 Fab (Fab, V domains shown)
VH: QVQLVESGGGLVQPGGSLRLSCAASGFTFSSYWMTWVRQAPGKGLEWVSSIKIKPDGYAASVKGRFTISRDNSKNTLYLQMNSLRAEDTAVYYCARLFYQYFARMDYWGQGTLVTVSS
VL: DIQMTQSPSSLSASVGDRVTITCRASQDISNYLNWYQQKPGKAPKLLIYAASNLQSGVPSRFSGSGSGTDFTLTISSLQPEDFATYYCQQHDTFRPTFGQGTKVEIKR
For B12, the binding result in the experiment with iC3b [2] is reported as “binds”.

B13: MOR9556 Fab format (Fab, V domains shown)
VH: EVQLVESGGGLVQPGGSLRLSCAASGFTFSSYWMTWVRQAPGKGLEWVSSIKIKPDGYAASVKGRFTISRDNSKNTLYLQMNSLRAEDTAVYYCARLFYQYFARMDYWGQGTLVTVSS
VL: DIQMTQSPSSLSASVGDRVTITCRASQDISNYLNWYQQKPGKAPKLLIYAASNLQSGVPSRFSGSGSGTDFTLTISSLQPEDFATYYCQQYDSYSPTFGQGTKVEIK
Turning to B13, the binding entry with iC3b [2] is recorded as “binds”.

B14: MOR09398 Fab (Fab, V domains shown)
VH: QVQLVESGGGLVQPGGSLRLSCAASGFTFSSYWMTWVRQAPGKGLEWVSSIKIKPDGYAASVKGRFTISRDNSKNTLYLQMNSLRAEDTAVYYCARLFYQYFARMDYWGQGTLVTVSS
VL: DIQMTQSPSSLSASVGDRVTITCRASQDISNYLNWYQQKPGKAPKLLIYAASNLQSGVPSRFSGSGSGTDFTLTISSLQPEDFATYYCQQWDSFSPTFGQGTKVEIKR
Turning to B14, in the experiment with iC3b [2], the binding entry is listed as “binds”.

B15: MOR9675 Fab format (Fab, V domains shown)
VH: EVQLVQSGAEVKKPGASVKVSCKASGYTFTGYYINWVRQAPGQGLEWMGIISPNQGTTGYAQKFQGRVTMTRDTSISTAYMELSSLRSEDTAVYYCARGNYDHLDYWGQGTLVTVSS
VL: DIQMTQSPSSLSASVGDRVTITCRASQGISNYLNWYQQKPGKAPKLLIYDASTLQSGVPSRFSGSGSGTDFTLTISSLQPEDFATYYCQQDWHTLPVTFGQGTKVEIK
As to B15, in the experiment with iC3b [2], the binding result is reported as “binds”.

Values taken from patent US20100291106A1.
